# Test results published in the supplement of paper PMC10849652.
# Amino acid sequences for entries named in this document (tags omitted). A change or cut given only in a name is not applied to a line headed by its entry.
# UniProt Q12874: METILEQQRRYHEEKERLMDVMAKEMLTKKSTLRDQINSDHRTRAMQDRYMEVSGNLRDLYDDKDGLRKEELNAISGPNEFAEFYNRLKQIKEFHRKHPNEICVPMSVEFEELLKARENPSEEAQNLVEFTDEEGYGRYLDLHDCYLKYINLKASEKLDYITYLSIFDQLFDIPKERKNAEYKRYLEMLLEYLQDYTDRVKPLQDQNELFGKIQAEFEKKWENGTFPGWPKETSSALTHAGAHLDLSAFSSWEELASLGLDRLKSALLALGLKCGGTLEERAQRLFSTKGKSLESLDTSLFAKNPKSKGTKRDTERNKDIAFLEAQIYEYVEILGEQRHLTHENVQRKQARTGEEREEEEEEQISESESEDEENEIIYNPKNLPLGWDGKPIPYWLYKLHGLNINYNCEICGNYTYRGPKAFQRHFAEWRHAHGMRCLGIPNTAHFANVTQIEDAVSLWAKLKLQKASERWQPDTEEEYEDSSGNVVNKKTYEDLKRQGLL
# UniProt Q9NR46: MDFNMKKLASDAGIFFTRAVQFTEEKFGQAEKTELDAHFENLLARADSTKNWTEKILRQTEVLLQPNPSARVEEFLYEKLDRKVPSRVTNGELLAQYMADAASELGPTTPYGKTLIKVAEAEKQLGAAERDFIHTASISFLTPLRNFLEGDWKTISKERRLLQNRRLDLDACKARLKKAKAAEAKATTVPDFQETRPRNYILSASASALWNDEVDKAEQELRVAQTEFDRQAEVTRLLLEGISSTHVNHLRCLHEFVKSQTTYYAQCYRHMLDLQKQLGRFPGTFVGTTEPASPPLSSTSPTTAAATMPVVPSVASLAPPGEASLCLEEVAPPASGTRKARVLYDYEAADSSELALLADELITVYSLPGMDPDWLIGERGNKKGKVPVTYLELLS
# UniProt Q8IX90, whole entry, looked up: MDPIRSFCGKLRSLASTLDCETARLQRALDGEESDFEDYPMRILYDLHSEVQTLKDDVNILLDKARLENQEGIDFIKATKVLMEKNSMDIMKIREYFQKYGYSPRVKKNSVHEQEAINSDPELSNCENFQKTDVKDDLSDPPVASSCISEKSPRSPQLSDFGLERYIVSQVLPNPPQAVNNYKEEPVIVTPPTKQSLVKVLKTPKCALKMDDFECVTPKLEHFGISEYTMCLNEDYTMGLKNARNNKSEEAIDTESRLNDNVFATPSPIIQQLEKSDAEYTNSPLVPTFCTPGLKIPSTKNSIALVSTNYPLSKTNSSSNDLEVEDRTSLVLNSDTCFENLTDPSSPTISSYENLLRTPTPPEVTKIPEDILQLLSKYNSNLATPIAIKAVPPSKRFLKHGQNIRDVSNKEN
# UniProt Q15427: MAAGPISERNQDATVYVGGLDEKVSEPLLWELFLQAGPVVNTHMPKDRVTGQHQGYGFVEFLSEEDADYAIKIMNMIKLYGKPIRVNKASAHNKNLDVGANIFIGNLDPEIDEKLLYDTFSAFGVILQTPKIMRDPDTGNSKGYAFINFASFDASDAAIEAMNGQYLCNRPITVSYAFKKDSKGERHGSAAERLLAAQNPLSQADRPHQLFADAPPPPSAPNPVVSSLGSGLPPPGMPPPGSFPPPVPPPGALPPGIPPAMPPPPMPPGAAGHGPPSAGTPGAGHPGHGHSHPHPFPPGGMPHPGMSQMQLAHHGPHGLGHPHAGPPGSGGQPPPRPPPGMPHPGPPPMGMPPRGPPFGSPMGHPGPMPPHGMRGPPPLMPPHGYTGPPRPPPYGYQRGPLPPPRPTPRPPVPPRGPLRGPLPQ
# UniProt O75533, whole entry, looked up: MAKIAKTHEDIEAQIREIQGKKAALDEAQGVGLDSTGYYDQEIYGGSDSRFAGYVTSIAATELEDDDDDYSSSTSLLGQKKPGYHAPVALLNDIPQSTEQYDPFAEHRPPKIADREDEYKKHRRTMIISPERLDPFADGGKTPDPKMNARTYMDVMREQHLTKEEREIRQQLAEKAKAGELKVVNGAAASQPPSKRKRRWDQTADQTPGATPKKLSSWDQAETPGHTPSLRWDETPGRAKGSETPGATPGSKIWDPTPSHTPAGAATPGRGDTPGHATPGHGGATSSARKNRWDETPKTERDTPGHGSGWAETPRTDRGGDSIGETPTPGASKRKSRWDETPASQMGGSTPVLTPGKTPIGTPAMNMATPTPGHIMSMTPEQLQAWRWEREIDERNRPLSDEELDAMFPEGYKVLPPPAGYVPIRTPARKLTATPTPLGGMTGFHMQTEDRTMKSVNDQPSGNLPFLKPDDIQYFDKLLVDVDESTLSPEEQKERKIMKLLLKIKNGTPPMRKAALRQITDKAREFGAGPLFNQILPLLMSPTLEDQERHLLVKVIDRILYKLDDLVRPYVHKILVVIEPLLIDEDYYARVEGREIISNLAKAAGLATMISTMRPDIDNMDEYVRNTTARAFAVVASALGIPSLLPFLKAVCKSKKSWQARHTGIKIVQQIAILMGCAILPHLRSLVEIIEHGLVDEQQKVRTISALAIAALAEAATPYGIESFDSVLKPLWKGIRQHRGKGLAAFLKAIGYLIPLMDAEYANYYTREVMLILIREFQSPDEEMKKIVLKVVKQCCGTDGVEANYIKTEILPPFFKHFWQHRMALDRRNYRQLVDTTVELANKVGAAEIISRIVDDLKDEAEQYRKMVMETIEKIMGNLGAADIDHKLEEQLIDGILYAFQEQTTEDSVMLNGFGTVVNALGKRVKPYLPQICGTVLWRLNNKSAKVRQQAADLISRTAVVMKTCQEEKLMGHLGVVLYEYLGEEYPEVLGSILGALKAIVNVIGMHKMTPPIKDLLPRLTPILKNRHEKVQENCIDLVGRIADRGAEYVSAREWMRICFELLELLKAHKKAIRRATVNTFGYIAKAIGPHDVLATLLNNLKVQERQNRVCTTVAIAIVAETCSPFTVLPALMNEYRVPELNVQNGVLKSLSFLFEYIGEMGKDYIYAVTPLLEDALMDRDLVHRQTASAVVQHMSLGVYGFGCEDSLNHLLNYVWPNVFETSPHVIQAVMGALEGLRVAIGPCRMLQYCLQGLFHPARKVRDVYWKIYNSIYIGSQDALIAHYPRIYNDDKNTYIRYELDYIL
# UniProt P30740: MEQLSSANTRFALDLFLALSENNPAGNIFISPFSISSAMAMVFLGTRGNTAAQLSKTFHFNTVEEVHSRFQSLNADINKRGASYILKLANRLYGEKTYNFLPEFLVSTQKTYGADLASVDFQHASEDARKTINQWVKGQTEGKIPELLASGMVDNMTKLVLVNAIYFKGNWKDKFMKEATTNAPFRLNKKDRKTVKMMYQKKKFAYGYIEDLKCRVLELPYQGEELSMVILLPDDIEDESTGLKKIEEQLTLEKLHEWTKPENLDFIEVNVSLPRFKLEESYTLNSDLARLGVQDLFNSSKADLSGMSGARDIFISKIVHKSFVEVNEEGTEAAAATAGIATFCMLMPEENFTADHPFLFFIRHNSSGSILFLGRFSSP
# UniProt Q15428: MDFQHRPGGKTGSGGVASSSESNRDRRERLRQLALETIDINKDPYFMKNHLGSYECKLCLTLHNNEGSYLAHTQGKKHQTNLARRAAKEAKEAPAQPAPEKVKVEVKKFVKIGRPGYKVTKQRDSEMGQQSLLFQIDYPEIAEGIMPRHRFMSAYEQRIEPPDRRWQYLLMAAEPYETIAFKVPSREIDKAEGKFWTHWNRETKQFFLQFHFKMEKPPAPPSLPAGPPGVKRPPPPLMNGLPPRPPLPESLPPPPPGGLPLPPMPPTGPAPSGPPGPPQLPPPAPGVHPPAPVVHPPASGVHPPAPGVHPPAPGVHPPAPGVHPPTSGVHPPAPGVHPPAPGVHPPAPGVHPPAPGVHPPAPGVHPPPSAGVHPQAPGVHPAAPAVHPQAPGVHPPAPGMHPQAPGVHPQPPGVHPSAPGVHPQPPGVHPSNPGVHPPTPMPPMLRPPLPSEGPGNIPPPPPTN
# UniProt Q9NRX5: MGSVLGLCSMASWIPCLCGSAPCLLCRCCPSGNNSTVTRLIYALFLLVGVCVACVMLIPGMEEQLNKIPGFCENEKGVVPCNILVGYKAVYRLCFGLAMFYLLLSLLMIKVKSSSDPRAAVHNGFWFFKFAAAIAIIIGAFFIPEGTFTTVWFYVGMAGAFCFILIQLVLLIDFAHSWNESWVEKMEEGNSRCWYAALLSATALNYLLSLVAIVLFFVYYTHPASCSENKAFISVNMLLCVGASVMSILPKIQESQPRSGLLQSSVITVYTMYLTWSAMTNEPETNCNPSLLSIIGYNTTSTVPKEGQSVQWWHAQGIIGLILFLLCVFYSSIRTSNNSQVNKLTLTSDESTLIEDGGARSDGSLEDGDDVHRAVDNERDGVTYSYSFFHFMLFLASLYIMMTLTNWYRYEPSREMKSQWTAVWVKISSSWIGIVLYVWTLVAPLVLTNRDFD
# UniProt Q9BRV8: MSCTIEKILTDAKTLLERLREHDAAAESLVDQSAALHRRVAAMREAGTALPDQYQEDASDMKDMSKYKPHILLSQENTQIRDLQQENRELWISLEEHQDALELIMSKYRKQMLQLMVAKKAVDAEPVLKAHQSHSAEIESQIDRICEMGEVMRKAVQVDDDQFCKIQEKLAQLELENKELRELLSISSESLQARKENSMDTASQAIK
# UniProt Q8NC51: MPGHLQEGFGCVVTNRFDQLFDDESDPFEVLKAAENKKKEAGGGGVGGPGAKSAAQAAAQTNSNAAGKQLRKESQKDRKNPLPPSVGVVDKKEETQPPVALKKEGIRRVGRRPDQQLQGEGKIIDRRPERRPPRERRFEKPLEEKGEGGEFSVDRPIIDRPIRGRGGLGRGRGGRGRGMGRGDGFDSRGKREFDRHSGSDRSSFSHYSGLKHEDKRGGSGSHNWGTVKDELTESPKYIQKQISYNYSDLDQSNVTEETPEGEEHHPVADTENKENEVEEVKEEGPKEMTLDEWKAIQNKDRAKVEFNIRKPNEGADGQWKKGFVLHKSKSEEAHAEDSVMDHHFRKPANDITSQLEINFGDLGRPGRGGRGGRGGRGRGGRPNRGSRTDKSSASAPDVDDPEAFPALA
# UniProt P23246: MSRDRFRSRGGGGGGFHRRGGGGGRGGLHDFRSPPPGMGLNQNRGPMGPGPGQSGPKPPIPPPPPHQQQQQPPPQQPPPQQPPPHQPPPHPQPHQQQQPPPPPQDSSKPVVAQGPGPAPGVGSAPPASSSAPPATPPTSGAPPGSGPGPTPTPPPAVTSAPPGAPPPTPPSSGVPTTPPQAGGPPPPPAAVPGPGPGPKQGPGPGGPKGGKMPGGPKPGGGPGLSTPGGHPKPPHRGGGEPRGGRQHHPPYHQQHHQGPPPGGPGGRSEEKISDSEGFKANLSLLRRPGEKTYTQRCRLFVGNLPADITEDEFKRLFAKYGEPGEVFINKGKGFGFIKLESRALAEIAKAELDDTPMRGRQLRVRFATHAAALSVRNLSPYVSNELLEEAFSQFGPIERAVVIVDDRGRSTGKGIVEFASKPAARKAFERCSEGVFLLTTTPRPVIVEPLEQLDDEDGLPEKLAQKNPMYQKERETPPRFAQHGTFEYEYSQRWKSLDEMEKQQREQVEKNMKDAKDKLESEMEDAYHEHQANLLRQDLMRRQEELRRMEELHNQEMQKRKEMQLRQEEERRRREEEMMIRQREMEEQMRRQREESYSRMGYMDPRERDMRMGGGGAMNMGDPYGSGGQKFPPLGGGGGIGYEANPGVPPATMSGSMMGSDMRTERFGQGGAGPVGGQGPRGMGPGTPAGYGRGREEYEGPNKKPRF
# UniProt Q8WVK7: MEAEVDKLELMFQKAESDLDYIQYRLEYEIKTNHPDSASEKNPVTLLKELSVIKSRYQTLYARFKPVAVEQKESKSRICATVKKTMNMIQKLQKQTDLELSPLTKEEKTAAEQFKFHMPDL
# UniProt Q99720, whole entry, looked up: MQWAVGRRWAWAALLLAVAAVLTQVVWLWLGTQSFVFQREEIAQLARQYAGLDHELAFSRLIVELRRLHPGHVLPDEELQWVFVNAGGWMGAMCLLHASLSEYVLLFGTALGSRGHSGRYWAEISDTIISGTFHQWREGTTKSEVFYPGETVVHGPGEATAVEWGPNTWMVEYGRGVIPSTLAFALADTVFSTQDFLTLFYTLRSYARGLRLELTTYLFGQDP
# UniProt Q9UJC5: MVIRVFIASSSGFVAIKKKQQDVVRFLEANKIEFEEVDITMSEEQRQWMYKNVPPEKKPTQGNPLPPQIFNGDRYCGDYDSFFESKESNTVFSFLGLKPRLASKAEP
# UniProt Q9UGK8: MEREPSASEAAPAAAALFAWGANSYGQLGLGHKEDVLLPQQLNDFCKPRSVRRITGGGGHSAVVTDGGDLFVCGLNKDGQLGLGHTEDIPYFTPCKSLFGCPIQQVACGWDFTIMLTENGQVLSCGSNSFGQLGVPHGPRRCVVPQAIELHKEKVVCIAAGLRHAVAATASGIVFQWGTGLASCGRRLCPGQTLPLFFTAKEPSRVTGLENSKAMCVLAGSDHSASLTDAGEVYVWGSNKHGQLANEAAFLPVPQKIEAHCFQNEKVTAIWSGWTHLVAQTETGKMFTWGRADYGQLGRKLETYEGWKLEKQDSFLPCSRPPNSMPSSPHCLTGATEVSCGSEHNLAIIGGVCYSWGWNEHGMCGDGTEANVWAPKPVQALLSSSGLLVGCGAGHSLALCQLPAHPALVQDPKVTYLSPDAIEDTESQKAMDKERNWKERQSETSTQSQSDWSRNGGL
# Some of the results follow.
# Tests used:
# Assay in all cases: log2 fold change, soluble protein after heating vs DMSO (PISA); higher = thermal stabilisation; K562 lysate, 10 uM; active = over 0.2 and 3.5 SD of the protein, either way, in both replicates (recomputed)
# [1] = compound: NCC(=O)Nc1ccc(-n2nc(C(F)(F)F)cc2-c2ccc3c(ccc4ccccc43)c2)cc1
# Procedure, shortened: (§1)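 Quantification was by TMTpro 16plex LC-MS/MS with equalised channel sums, applied to the supernatant after 21,000xg for 90 min. Samples were crude K562 extract at 1 mg/mL protein in PBS pH 7.4 with 1 mM MgCl2, treated with 10 μM compound for 30 min, heated for 3 min across 48°C-58°C, pooled and brought to 0.5% NP-40 at 4°C. Values are log-two fold changes in thermal stability relative to solvent controls, from duplicates.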
# vorinostat = compound: O=C(CCCCCCC(=O)Nc1ccccc1)NO [vorinostat]
# Procedure, shortened: as §1
# silmitasertib = compound: O=C(O)c1ccc2c(c1)nc(Nc1cccc(Cl)c1)c1ccncc12 [silmitasertib]
# Procedure, shortened: as §1
# [2] = compound: O=C1NC(=O)C(c2cnc3ccccn23)=C1c1cn2c3c(cc(F)cc13)CN(C(=O)N1CCCCC1)CC2
# Procedure, shortened: as §1
# entospletinib = compound: c1cn2cc(-c3ccc4cn[nH]c4c3)nc(Nc3ccc(N4CCOCC4)cc3)c2n1 [entospletinib]
# Procedure, shortened: as §1
Target,log2 fold change [1],log2 fold change (vorinostat),log2 fold change (silmitasertib),log2 fold change [2],log2 fold change (entospletinib)
SF3A3 (UniProt Q12874),inactive: -0.019,inactive: -0.242,inactive: 0.065,inactive: -0.028,inactive: 0.001
SH3GLB2 (UniProt Q9NR46),inactive: -0.036,inactive: -0.188,inactive: 0.031,inactive: -0.039,inactive: -0.007
SERPINF1 (UniProt P36955),inactive: 0.047,inactive: 0.125,inactive: 0.022,inactive: 0.016,inactive: -0.027
SKA3 (UniProt Q8IX90),inactive: -0.007,active: -0.247,inactive: 0,inactive: -0.022,inactive: 0.006
SF3B4 (UniProt Q15427),inactive: -0.049,inactive: 0.063,inactive: -0.075,inactive: 0.042,inactive: -0.057
SF3B1 (UniProt O75533),inactive: -0.004,inactive: -0.205,inactive: 0.042,inactive: 0.008,inactive: 0.02
SGMS1 (UniProt Q86VZ5),inactive: -0.012,inactive: -0.078,inactive: -0.034,inactive: -0.179,inactive: -0.005
SERPINB1 (UniProt P30740),inactive: -0.005,inactive: 0.115,inactive: -0.013,inactive: -0.006,inactive: -0.002
SETMAR (UniProt Q53H47),inactive: -0.003,inactive: -0.022,inactive: -0.03,inactive: 0.042,inactive: 0.028
SLAIN2 (UniProt Q9P270),inactive: -0.005,inactive: -0.045,inactive: -0.031,inactive: 0.02,inactive: 0
SF3A2 (UniProt Q15428),inactive: -0.048,inactive: -0.018,inactive: 0.01,inactive: -0.024,inactive: -0.01
SERINC1 (UniProt Q9NRX5),inactive: -0.012,inactive: -0.254,inactive: -0.026,inactive: -0.058,inactive: 0.028
SIKE1 (UniProt Q9BRV8),inactive: 0.011,inactive: 0.032,inactive: 0.041,inactive: 0.039,inactive: -0.031
SERBP1 (UniProt Q8NC51),inactive: 0.014,inactive: 0.133,inactive: -0.043,inactive: 0.004,inactive: 0.033
SHROOM1 (UniProt Q2M3G4),inactive: 0.013,inactive: -0.156,inactive: 0,inactive: -0.04,inactive: 0.018
SFPQ (UniProt P23246),inactive: 0.01,inactive: 0.015,inactive: 0.023,inactive: -0.012,inactive: 0.009
SKA2 (UniProt Q8WVK7),inactive: 0.086,active: -0.364,inactive: -0.035,inactive: 0.067,inactive: -0.028
SIGMAR1 (UniProt Q99720),inactive: -0.012,inactive: 0.039,inactive: -0.022,inactive: -0.008,inactive: -0.034
SFXN2 (UniProt Q96NB2),inactive: -0.01,inactive: 0.133,inactive: 0.013,inactive: -0.011,inactive: 0.023
SKIL (UniProt P12757),inactive: 0.069,inactive: -0.319,inactive: 0.051,,inactive: 0.02
SETD2 (UniProt Q9BYW2),inactive: 0.038,inactive: -0.04,inactive: -0.027,inactive: 0.016,inactive: -0.013
SHMT2 (UniProt P34897),inactive: 0,inactive: 0.119,inactive: 0.01,inactive: 0.013,inactive: 0.03
SH3BGRL2 (UniProt Q9UJC5),inactive: -0.003,inactive: 0.153,inactive: -0.011,inactive: 0.099,inactive: 0.04
SERGEF (UniProt Q9UGK8),inactive: 0.011,inactive: -0.189,inactive: -0.04,inactive: -0.068,inactive: -0.024
SETD1A (UniProt O15047),inactive: -0.006,inactive: -0.11,inactive: -0.02,inactive: -0.011,inactive: -0.035
SHKBP1 (UniProt Q8TBC3),inactive: -0.031,inactive: -0.069,inactive: -0.06,inactive: 0.01,inactive: -0.218
SERBP1 isoform 3 (UniProt Q8NC51),,inactive: 0,inactive: -0.085,inactive: -0.052,inactive: 0.032

# Whole records from above:
# SKIL (UniProt P12757) is entered as log2 fold change [1]: inactive: 0.069; log2 fold change (vorinostat): inactive: -0.319; log2 fold change (silmitasertib): inactive: 0.051; log2 fold change (entospletinib): inactive: 0.02
# SIKE1 (UniProt Q9BRV8) is entered as log2 fold change [1]: inactive: 0.011; log2 fold change (vorinostat): inactive: 0.032; log2 fold change (silmitasertib): inactive: 0.041; log2 fold change [2]: inactive: 0.039; log2 fold change (entospletinib): inactive: -0.031
